{"sequences": {"note": "Amino acid sequences for entries named in this document (tags omitted). A change or cut given only in a name is not applied to a line headed by its entry.", "UniProt P18054": "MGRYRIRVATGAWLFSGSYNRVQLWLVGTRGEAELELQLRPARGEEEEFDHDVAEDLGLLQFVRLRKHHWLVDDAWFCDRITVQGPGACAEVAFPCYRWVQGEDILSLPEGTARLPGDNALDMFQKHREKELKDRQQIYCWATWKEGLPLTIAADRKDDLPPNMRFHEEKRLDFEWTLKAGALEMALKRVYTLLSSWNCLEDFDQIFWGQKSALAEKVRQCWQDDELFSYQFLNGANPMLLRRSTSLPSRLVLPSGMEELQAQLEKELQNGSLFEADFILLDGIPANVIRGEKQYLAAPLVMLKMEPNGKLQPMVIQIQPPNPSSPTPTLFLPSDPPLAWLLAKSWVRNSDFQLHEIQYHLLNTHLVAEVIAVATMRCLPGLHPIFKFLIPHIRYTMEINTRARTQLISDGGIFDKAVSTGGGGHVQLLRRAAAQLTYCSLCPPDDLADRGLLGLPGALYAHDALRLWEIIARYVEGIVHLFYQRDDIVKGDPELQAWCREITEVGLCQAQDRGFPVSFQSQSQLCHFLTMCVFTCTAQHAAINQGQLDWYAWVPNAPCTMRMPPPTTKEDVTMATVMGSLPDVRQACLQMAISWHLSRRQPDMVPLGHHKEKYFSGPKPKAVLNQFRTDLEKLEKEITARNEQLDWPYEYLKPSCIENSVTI"}, "source": "PubChem BioAssay AID1671190", "about": "(National Center for Advancing Translational Sciences (NCATS), 2021)", "note": "In all, about 580,000 compounds went through this assay and about 6,100 (1.1%) were called active. This list was built around the results that the source calls inconclusive (neither active nor inactive); the mix of calls is not that of the screen. The call rests on the fitted dose curve; in most records, active means well fitted inhibition curve with a large enough effect; inconclusive means small, poorly fitted or top-dose-only effect, or another doubt; inactive means no such curve, though single readings can be large or run the other way. Where the call is inconclusive, the potency comes from a doubtful curve fit. On the % scale 0 is the no-effect control and ±100 the full control effect; potency means the concentration at half of the fitted maximal effect."}
{"molecular_target": "Polyunsaturated fatty acid lipoxygenase ALOX12 (Homo sapiens) (UniProt P18054)", "assay": "Primary qHTS assay for inhibitors of human arachidonate 12S-lipoxygenase (ALOX12): Round 2", "details": "purified 12hLO, xylenol orange hydroperoxide absorbance; activity change, negative = inhibition: at 108 µM (top of the series) unless noted", "procedure,_shortened": "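Hydroperoxide product was detected by ferrous iron/xylenol orange as the 573 to 405 nm absorbance ratio. Arachidonic acid at 40 uM (final) was turned over for 30 min at room temperature by 150 nM human 12hLO, pH 7.0 Hepes buffer, after 15 min compound preincubation.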"}
{"smiles": "C[N+](C)(CC#CCCCCCCC#CC[N+](C)(C)Cc1ccccc1)Cc1ccccc1", "Potency": "inconclusive: 39.8 µM [inhibitor, partial curve, poor fit]"}
{"smiles": "CCCOc1ncnc2c1[nH]c1ccccc12", "activity change, negative = inhibition": "inactive: 0%"}
{"smiles": "COC(=O)CN1C(c2ccccc2)=Nc2ccc(Cl)cc2C1c1ccccc1", "note": "(centres undefined)", "activity change, negative = inhibition": "inactive: -3.86%"}
{"smiles": "CSc1nc(-c2ccc(C)cc2)[nH]c1S(=O)(=O)c1ccccc1", "Potency": "inconclusive: 2.51 µM [inhibitor, full curve, poor fit]"}
{"smiles": "C[C@@H](NC(=O)Cn1cnc2c(NCc3ccccc3)ncnc21)c1cccc2ccccc12", "Potency": "inconclusive: 44.7 µM [inhibitor, single point]"}
{"smiles": "COc1cccc2cc(C(=O)N(C)CCOc3ccccc3C)c(=O)oc12", "activity change, negative = inhibition": "inactive: 46.6%"}
{"smiles": "CCCCc1ccc(NC(=O)C(=O)NCCN2CCN(C(=O)c3ccc(C)cc3)CC2)cc1", "activity change, negative = inhibition": "inactive: -15.9%"}
{"smiles": "CC(C)CN1C(=O)c2ccc(NC(=O)C3CC3)cc2C1=O", "activity change, negative = inhibition": "inactive: 0%"}
{"smiles": "CCC(=O)Nc1cccc(-c2nc3ccc(C)cc3o2)c1", "activity change, negative = inhibition": "inactive: 0%"}
{"smiles": "O=C1Nc2ccccc2N(C(=O)c2c(F)cccc2F)C1c1nc2ccccc2[nH]1", "note": "(centres undefined)", "Potency": "inconclusive: 89.1 µM [inhibitor, partial curve, poor fit]"}
{"smiles": "CC(Oc1c(F)c(F)c(F)c(F)c1F)C(=O)c1c[nH]c2ccccc12", "note": "(centres undefined)", "Potency": "inconclusive: 89.1 µM [inhibitor, single point]"}
{"smiles": "COc1ccc(-c2[nH]ncc2-c2ccc3c(c2)OCCO3)c(O)c1", "Potency": "inconclusive: 100 µM [inhibitor, single point]"}
{"smiles": "Cc1cccc(NC(=O)CN2CCN(CC(=O)c3cc(C)n(CCc4cccs4)c3C)CC2)c1C", "Potency": "inconclusive: 89.1 µM [inhibitor, partial curve, poor fit]"}
{"smiles": "CC(C)(C)OC(=O)N1CCC(C(=O)N[C@H](C(=O)O)c2ccccc2)(c2ccccc2)CC1", "Potency": "inconclusive: 44.7 µM [inhibitor, single point]"}
{"smiles": "CC(C)Oc1ccc(CNC(=O)C2Cn3cccc3C(=O)N2)cc1", "note": "(centres undefined)", "activity change, negative = inhibition": "inactive: 31.5%"}
{"smiles": "CCCCOc1ncnc2c1[nH]c1ccccc12", "activity change, negative = inhibition": "inactive: 35.2%"}
{"smiles": "CCCC(=O)N1CCN(c2ccc(NC(=O)C(C)(C)C)cc2)CC1", "activity change, negative = inhibition": "inactive: -1.65%"}
{"smiles": "O=C(CCc1ncc(-c2ccccc2)o1)NC12CC3CC(CC(C3)C1)C2", "Potency": "inconclusive: 100 µM [inhibitor, partial curve, poor fit]"}
{"smiles": "Cn1nc(C(=O)N2CCCC2c2ccc3c(c2)OCCCO3)c2ccccc2c1=O", "note": "(centres undefined)", "activity change, negative = inhibition": "inactive: 15.2%"}
{"smiles": "Nc1nc(NCCCN2CCOCC2)nc(Nc2ccc(Cl)cc2)c1[N+](=O)[O-]", "Potency": "inconclusive: 126 µM [inhibitor, single point]"}
{"smiles": "O=C(CCS(=O)(=O)c1ccccc1)Nc1nc2cc3c(cc2s1)OCCO3", "activity change, negative = inhibition": "inactive: -24.1%"}
{"smiles": "N#C/C(=C\\c1cc(Cl)cc(Cl)c1O)C(=O)NC1CCCCC1", "Potency": "active: 7.08 µM"}
{"smiles": "Cc1[nH]c2ccccc2c1N=Nc1c(C)n(C)n(-c2ccccc2)c1=O", "Potency": "inconclusive: 5.62 µM [inhibitor, full curve, poor fit]"}
{"smiles": "CCCn1nc(C(=O)N(C)Cc2cccs2)c2ccccc2c1=O", "Potency": "inconclusive: 56.2 µM [inhibitor, single point]"}
{"smiles": "O=c1c(-c2cccs2)nc2cnc(Oc3ccccc3)nc2n1Cc1cccs1", "activity change, negative = inhibition": "inactive: 71.9%"}
{"smiles": "Cc1cnc(Nc2ccc(OCCN3CCCC3)cc2)nc1Nc1cccc(S(=O)(=O)NC(C)(C)C)c1", "Potency": "inconclusive: 1.93 µM [inhibitor, full curve]"}
{"smiles": "CSc1ccc(-c2cc3c(c4c2ccn4C)C2CCC3C2)cc1", "note": "(centres undefined)", "Potency": "inconclusive: 79.4 µM [inhibitor, single point]"}
{"smiles": "Cc1cccc(NC(=S)NCc2ccco2)n1", "Potency": "inconclusive: 50.1 µM [inhibitor, partial curve, poor fit]"}
{"smiles": "N#C/C(=N\\Nc1cccc(C(F)(F)F)c1)C(=O)c1ccsc1", "Potency": "inconclusive: 100 µM [inhibitor, single point]"}
{"smiles": "CCOc1ccc(N2C(=O)c3[nH]nc(-c4ccc(OC)cc4)c3C2c2cccs2)cc1", "note": "(centres undefined)", "Potency": "inconclusive: 141 µM [inhibitor, partial curve, poor fit]"}
{"smiles": "Cc1ccc(C)c(NC(=S)N/N=C/C2=CCC3CC2C3(C)C)c1", "note": "(centres undefined)", "Potency": "inconclusive: 35.5 µM [inhibitor, partial curve, poor fit]"}
{"smiles": "Cc1ccc(/C=C2/CCc3c2nc2ccccc2c3C(=O)O)s1", "Potency": "inconclusive: 6.31 µM [inhibitor, full curve, poor fit]"}
{"smiles": "CCCc1cc2c(=O)c(-c3ccc4c(c3)OCCO4)c(C)oc2cc1OS(C)(=O)=O", "Potency": "inconclusive: 89.1 µM [inhibitor, partial curve, poor fit]"}
{"smiles": "COc1ccccc1CN(Cc1cc2cc(C)ccc2[nH]c1=O)Cc1nnnn1CC1CCCO1", "note": "(centres undefined)", "activity change, negative = inhibition": "inactive: -19%"}
{"smiles": "CN(Cc1ccc(F)cc1)C(=O)CCc1ncc(-c2ccccc2)o1", "Potency": "inconclusive: 100 µM [inhibitor, partial curve, poor fit]"}
{"smiles": "CC(C)(c1ccccc1)c1ccc(OCCN)cc1", "Potency": "inconclusive: 63.1 µM [inhibitor, partial curve, poor fit]"}
{"smiles": "Oc1ccc(C[C@H]2CN([C@@H](Cc3cccc(O)c3)CN3CCC[C@@H]3CN3C(=S)NC[C@@H]3Cc3ccccc3)C(=S)N2CC2CCCCC2)cc1", "Potency": "inconclusive: 44.7 µM [inhibitor, partial curve, poor fit]"}
{"smiles": "O=C(c1cc(-c2ccncc2)nc2ccccc12)N1CCN(Cc2ccccc2)CC1", "activity change, negative = inhibition": "inactive: -14.2%"}
{"smiles": "COCC(=O)NC[C@H]1OC[C@@H](NC2CCCC2)[C@@H]1O", "activity change, negative = inhibition": "inactive: 3.44% [at 176 µM]"}
{"smiles": "CN(Cc1ccccc1)C(=O)C[C@@H]1O[C@H](CNCc2ccc(F)cc2)[C@@H](O)[C@H]1O", "Potency": "inconclusive: 50.1 µM [inhibitor, partial curve]"}
{"smiles": "O=C(O)c1ccccc1C(=O)NC1=NN(c2ccccc2)CC1", "Potency": "inconclusive: 31.6 µM [inhibitor, partial curve, poor fit]"}
{"smiles": "Cc1ccccc1C(=O)N1CCc2nc(-c3ccccc3)nc(-c3ccc(Cl)cc3)c2C1", "Potency": "inconclusive: 14.1 µM [inhibitor, full curve]"}
{"smiles": "CCCC/C(=N/NC(=S)Nc1cccc(C)c1)c1ccccc1", "Potency": "inconclusive: 126 µM [inhibitor, single point]"}
{"smiles": "Cc1noc(-c2ccccc2)c1-c1ccccc1[N+](=O)[O-]", "Potency": "inconclusive: 100 µM [inhibitor, single point]"}
{"smiles": "CCOc1ccc(NC(=O)Cc2nc(-c3ccccc3)oc2C)cc1OC", "activity change, negative = inhibition": "inactive: 34%"}
{"smiles": "O=c1c2oc3ccccc3c2[nH]c(=S)n1-c1ccccc1", "Potency": "inconclusive: 44.7 µM [inhibitor, partial curve, poor fit]"}
{"smiles": "COc1cc(CN2CCCCCC2c2ccccc2Cl)ccc1OCC(N)=O", "note": "(centres undefined)", "Potency": "inconclusive: 39.8 µM [inhibitor, partial curve, poor fit]"}
{"smiles": "CCN1CC(CN(C)S(=O)(=O)N(CC)CC)Oc2ccccc21", "note": "(centres undefined)", "Potency": "inconclusive: 50.1 µM [inhibitor, partial curve, poor fit]"}
{"smiles": "CC(C)(C)C(=O)N(Cc1ccc2cc[nH]c2c1)C1CC1", "activity change, negative = inhibition": "inactive: -4.74%"}
{"smiles": "O=C(CCc1ccccc1)N1CCCCCC1CN1CCOCC1", "note": "(centres undefined)", "activity change, negative = inhibition": "inactive: 5.23%"}
{"smiles": "Cc1nc2cc(NC(=O)Nc3nccs3)ccc2n1C", "activity change, negative = inhibition": "inactive: 6.17%"}
{"smiles": "NCC(O)COc1ccccc1", "note": "(centres undefined)", "activity change, negative = inhibition": "inactive: -26.6%"}
{"smiles": "O=C1NCCCCCN(Cc2cccc(F)c2)[C@@H]2C[C@@H](C(=O)N3CCc4ccccc4C3)C[C@H]12", "activity change, negative = inhibition": "inactive: 6.28%"}
{"smiles": "COc1ccc(NC(=O)Nc2ccc3c(c2)CCC3)cc1OC", "activity change, negative = inhibition": "inactive: -0.908%"}
{"smiles": "Cc1ccc(Cn2c(Sc3nccc(C)n3)nc3c2c(=O)[nH]c(=O)n3C)cc1", "Potency": "inactive"}
{"smiles": "C=CCn1c(N)c(C(=O)OC)sc1=S", "Potency": "inconclusive: 89.1 µM [inhibitor, single point]"}
{"smiles": "Fc1ccc(-n2ncc3c(Nc4cccc(Cl)c4)ncnc32)cc1", "Potency": "inconclusive: 100 µM [inhibitor, partial curve, poor fit]"}
{"smiles": "CCN(CC)CCCNC(=O)c1cn(C)c(=O)c2c1c1ccccc1n2C", "Potency": "inconclusive: 35.5 µM [inhibitor, single point]"}
{"smiles": "Cc1ccccc1-c1nccc2c(=O)cc(-c3cccnc3)oc12", "Potency": "inconclusive: 39.8 µM [inhibitor, partial curve]"}
{"smiles": "Cc1cc(C(=O)NCC2CC2)c2c(C3CCNCC3)noc2n1", "Potency": "inconclusive: 100 µM [inhibitor, partial curve, poor fit]"}
{"smiles": "COc1ccc(Nc2cc(C)nc3ncnn23)cc1", "Potency": "inconclusive: 50.1 µM [inhibitor, partial curve, poor fit]"}
{"smiles": "O=C1CCc2cc(S(=O)(=O)NCc3ccccc3Cl)cc3c2N1CC3", "Potency": "inconclusive: 39.8 µM [inhibitor, partial curve, poor fit]"}
{"smiles": "CCCS(=O)(=O)N1CC[C@@H](CC(=O)O)[C@@H](CC2=NCCc3cc(OC)ccc32)C1", "Potency": "inconclusive: 44.7 µM [inhibitor, partial curve, poor fit]"}
{"smiles": "COC(=O)N(C)C[C@H]1OCc2cn(nn2)CCCC(=O)N([C@H](C)CO)C[C@@H]1C", "activity change, negative = inhibition": "inactive: -50.7%"}
{"smiles": "O=S(=O)(c1ccccc1)c1nnn2c1nc(NCc1ccc(Cl)cc1)c1sccc12", "activity change, negative = inhibition": "inactive: -24.6%"}
{"smiles": "CN(C(=S)NC(=O)Cc1ccccc1)c1ccccc1", "Potency": "inconclusive: 70.8 µM [inhibitor, partial curve, poor fit]"}
{"smiles": "Cc1c(/C=C/c2cc[n+](C)cc2)c2ccccc2n1C", "Potency": "inconclusive: 70.8 µM [inhibitor, partial curve, poor fit]"}
{"smiles": "COc1ccc2c(c1)Sc1ccccc1N2", "Potency": "inconclusive: 1 µM [inhibitor, full curve, poor fit]"}
{"smiles": "CCOC(=O)c1ccc(NC(=O)NC2CC3CCC(C2)N3Cc2nnnn2Cc2ccco2)cc1", "note": "(centres undefined)", "Potency": "inconclusive: 15.8 µM [inhibitor, partial curve, poor fit]"}
